Some of the results follow.
Experiments:
Experiment in all cases: log2 fold change, soluble protein after heating vs DMSO (PISA); higher = thermal stabilisation; K562 lysate, 10 uM; active = over 0.2 and 3.5 SD of the protein, either way, in both replicates (recomputed)
[1] = compound: C#Cc1cccc(Nc2ncnc3cc(OCCOC)c(OCCOC)cc23)c1 [erlotinib]
Summary of the method: (§1)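 K562 pellets were dounce-homogenised in PBS pH 7.4 with 1 mM MgCl2, and the crude extract at 1 mg/mL protein was treated with 10 μM compound for 30 min. Aliquots were heated for 3 min across 48°C-58°C, pooled, and brought to 0.5% NP-40 at 4°C; soluble protein was the supernatant after 21,000xg for 90 min. Soluble protein was quantified by TMTpro 16plex LC-MS/MS with channel sums equalised, and reported as log2 fold change in thermal stability against DMSO controls, with values from duplicates.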

The chains behind the UniProt entries cited, without tags or fusion partners. Where a name states a change or a piece, a line headed by the entry shows the natural chain unless it says otherwise.
UniProt P42226: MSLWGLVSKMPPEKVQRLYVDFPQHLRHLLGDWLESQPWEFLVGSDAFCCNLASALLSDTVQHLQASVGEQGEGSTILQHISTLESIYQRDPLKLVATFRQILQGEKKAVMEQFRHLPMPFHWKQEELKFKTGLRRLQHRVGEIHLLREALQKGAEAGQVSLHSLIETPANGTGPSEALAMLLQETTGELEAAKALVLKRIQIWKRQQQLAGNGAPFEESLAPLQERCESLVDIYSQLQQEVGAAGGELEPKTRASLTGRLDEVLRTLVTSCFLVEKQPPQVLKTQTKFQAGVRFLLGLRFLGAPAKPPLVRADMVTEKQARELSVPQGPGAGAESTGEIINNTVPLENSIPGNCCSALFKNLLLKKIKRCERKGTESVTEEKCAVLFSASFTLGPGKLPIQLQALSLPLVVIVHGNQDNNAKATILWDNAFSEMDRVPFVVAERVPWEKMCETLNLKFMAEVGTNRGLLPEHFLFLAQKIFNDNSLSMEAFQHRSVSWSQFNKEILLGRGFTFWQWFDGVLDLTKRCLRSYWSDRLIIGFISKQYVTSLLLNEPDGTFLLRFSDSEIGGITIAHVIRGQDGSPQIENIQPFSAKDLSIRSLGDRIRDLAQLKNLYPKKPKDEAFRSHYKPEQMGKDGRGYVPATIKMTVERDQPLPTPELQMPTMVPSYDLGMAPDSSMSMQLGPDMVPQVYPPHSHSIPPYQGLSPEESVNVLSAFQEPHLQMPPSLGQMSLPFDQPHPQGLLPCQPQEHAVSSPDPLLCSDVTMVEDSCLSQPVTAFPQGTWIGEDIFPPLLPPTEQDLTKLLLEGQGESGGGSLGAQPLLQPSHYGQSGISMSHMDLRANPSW
UniProt Q08945, whole entry, looked up: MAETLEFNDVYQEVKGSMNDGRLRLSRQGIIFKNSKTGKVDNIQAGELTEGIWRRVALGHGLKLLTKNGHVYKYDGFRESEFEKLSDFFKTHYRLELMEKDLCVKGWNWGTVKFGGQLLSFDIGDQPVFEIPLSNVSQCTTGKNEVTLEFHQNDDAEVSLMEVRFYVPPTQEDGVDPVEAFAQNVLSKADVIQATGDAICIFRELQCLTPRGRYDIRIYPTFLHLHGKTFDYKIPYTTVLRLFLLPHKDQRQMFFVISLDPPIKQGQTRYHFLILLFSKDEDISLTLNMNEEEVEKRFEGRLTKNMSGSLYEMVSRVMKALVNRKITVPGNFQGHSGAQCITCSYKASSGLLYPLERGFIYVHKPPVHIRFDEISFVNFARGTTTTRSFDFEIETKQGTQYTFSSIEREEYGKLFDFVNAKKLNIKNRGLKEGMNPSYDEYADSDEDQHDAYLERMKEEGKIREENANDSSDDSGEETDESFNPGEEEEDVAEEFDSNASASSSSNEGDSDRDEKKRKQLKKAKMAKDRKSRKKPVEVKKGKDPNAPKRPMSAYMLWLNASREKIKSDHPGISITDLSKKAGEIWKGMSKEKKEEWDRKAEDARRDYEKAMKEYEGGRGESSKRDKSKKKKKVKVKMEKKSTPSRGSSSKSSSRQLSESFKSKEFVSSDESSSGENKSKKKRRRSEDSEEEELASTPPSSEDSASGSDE
UniProt Q8WW59: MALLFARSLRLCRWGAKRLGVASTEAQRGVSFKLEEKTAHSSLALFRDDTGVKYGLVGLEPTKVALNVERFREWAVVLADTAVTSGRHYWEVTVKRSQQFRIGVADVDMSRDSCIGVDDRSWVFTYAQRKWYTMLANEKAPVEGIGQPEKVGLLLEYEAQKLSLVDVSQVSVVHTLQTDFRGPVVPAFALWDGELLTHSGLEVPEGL
UniProt O43805: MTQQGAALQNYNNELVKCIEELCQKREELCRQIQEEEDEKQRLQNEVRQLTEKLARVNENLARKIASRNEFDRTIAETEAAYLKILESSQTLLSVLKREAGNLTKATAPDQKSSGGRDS
UniProt Q9H254, whole entry, looked up: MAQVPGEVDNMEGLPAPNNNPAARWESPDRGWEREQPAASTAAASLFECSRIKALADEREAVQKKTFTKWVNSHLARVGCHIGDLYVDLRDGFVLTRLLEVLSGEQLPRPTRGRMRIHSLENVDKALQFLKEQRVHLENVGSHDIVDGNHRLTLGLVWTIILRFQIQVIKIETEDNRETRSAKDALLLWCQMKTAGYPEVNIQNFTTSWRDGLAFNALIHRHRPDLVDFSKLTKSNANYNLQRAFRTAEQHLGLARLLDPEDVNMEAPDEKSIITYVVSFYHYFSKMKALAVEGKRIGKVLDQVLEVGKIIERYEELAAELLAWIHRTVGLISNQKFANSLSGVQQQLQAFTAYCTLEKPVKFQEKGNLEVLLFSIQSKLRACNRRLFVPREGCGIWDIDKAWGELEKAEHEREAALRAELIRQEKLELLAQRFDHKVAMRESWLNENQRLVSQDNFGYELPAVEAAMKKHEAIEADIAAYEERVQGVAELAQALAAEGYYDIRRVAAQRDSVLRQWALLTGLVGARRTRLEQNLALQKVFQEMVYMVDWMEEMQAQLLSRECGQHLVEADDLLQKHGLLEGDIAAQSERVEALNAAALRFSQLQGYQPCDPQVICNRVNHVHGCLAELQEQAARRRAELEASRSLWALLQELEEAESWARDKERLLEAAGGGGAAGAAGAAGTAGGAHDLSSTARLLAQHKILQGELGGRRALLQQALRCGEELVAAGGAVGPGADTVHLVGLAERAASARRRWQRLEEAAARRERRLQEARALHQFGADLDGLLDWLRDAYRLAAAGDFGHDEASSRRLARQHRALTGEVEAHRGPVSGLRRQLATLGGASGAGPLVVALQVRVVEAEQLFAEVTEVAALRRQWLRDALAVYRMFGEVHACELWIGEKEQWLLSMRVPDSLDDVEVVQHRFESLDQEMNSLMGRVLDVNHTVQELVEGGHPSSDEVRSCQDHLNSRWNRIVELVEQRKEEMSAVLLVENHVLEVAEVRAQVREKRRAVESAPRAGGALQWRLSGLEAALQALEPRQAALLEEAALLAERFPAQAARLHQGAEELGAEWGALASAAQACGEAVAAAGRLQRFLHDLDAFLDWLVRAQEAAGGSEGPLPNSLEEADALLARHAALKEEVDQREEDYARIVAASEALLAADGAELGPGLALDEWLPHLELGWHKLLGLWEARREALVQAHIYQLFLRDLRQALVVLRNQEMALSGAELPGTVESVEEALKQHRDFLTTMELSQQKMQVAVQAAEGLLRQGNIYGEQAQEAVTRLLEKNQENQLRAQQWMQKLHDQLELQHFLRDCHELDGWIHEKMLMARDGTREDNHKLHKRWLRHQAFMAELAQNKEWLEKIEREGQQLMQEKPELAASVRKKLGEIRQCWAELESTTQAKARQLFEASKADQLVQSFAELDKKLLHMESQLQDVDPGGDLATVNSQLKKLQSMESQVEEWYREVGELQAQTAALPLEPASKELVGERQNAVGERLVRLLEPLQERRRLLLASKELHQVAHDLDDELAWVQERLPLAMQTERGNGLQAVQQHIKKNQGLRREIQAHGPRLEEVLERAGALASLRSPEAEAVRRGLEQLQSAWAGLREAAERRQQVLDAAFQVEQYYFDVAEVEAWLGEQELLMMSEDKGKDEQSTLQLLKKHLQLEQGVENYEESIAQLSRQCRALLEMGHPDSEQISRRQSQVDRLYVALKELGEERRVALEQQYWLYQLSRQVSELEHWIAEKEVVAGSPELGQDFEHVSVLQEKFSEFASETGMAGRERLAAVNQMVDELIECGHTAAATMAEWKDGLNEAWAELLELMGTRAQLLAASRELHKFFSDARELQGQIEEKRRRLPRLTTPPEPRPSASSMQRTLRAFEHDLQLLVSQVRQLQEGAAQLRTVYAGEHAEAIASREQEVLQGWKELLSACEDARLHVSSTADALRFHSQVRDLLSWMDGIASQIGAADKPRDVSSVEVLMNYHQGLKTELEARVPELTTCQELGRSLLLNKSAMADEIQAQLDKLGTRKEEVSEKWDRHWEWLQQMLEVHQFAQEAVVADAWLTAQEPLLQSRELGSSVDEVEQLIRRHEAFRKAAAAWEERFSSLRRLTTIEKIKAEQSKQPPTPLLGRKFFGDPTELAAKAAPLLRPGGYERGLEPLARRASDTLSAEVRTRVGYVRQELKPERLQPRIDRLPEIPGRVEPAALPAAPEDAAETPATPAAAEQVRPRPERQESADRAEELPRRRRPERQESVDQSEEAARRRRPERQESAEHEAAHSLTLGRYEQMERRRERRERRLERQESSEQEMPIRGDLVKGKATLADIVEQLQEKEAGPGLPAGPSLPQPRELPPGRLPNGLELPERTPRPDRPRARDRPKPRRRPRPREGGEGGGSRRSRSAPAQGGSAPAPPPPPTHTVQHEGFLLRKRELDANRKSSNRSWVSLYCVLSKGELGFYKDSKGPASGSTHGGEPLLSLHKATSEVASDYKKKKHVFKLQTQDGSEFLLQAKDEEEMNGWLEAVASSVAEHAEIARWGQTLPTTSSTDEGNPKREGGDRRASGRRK
UniProt P42229: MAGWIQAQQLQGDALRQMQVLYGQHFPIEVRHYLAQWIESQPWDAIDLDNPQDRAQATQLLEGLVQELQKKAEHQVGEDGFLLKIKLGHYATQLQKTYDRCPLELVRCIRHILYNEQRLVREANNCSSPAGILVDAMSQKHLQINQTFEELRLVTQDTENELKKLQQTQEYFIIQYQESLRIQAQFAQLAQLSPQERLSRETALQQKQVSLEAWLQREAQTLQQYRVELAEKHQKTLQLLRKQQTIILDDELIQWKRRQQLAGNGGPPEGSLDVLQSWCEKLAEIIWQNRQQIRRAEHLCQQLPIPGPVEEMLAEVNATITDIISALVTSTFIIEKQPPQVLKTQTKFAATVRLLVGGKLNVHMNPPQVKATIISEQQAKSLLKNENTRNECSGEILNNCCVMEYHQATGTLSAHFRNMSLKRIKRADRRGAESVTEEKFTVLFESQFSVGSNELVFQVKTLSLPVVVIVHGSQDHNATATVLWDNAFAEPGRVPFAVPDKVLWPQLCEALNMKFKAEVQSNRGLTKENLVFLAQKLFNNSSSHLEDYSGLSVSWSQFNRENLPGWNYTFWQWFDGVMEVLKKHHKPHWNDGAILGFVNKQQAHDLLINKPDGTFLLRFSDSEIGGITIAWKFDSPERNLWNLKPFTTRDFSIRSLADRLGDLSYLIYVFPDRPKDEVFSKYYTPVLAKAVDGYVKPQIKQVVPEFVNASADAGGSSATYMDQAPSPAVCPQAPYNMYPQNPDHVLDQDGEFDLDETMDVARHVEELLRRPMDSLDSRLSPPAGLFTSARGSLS
UniProt P35270: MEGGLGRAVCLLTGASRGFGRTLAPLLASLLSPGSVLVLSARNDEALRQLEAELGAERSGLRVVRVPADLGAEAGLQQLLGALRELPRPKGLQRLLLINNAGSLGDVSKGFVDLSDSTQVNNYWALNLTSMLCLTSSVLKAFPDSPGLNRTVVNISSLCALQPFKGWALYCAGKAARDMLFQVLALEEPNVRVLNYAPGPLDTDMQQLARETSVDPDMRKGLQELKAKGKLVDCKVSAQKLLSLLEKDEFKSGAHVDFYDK
UniProt Q86XZ4: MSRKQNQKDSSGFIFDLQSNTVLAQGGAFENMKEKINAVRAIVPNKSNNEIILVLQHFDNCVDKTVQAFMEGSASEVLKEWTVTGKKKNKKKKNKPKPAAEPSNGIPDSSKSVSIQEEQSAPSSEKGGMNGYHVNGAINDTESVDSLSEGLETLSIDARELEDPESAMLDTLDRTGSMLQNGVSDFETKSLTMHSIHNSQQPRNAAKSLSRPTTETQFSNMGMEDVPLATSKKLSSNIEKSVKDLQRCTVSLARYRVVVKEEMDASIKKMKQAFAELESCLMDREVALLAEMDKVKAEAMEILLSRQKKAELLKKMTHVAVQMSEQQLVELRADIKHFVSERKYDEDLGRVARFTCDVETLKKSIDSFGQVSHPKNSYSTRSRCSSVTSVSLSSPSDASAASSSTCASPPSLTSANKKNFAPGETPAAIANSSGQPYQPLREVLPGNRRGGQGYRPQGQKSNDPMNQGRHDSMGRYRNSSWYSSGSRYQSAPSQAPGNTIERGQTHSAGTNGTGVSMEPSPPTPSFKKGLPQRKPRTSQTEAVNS
UniProt O75494: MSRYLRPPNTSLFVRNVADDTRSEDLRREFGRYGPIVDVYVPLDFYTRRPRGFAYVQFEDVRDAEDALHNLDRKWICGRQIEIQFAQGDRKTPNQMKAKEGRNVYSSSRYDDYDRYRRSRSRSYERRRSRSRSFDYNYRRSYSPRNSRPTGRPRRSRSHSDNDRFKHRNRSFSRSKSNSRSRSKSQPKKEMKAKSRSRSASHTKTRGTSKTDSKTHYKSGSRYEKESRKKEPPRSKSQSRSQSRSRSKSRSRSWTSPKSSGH
UniProt P51571: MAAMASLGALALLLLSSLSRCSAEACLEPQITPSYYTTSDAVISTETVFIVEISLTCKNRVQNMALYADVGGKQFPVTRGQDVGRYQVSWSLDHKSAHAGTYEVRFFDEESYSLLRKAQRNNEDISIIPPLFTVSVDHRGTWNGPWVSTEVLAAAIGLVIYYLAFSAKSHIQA

[2] = compound: C/C(=N\NC(=O)C1=CC(=CC=C1)S(=O)(=O)N2CCOCC2)/C3=C(C=CC(=C3)Cl)O
Summary of the method: as §1

[3] = compound: C1=CC(=CC=C1C2=NC3=C(N2)C=C(C=C3)C(=O)N)OC4=CC=C(C=C4)Cl
Summary of the method: as §1

[4] = compound: C1=CC2=C(C=CC(=C2)/C=C\3/C(=O)NC(=NCC4=CC=CS4)S3)N=C1
Summary of the method: as §1

[5] = compound: C1=CC2=NC=CN=C2C=C1/C=C/3\C(=O)NC(=O)S3
Summary of the method: as §1

[6] = compound: C1=CC=C(C=C1)C2=NC(=C(N2)C3=CC=NC=C3)C4=CC(=C(C=C4)Cl)O
Summary of the method: as §1

[7] = compound: C1=CC=C2C(=C1)C3=NNC4=CC=CC(=C43)C2=O
Summary of the method: as §1

[8] = compound: C1CCN(C1)C(=O)NC2=CC=CC(=C2)NC3=NC=C(C(=N3)NCCC4=CN=CN4)Br
Summary of the method: as §1

[9] = compound: C1CN(CCC1(CC2=CC=C(C=C2)Cl)N)C3=NC=NC4=C3C=CN4
Summary of the method: as §1

[10] = compound: C1COCCN1CCN2C3=CC=CC=C3N=C2NC(=O)C4=CC(=CC=C4)[N+](=O)[O-] [IRAK-1-4 Inhibitor I]
Summary of the method: as §1

Target | log2 fold change [1] | log2 fold change [2] | log2 fold change [3] | log2 fold change [4] | log2 fold change [5] | log2 fold change [6] | log2 fold change [7] | log2 fold change [8] | log2 fold change [9] | log2 fold change [10]
SPAST (UniProt Q9UBP0) | inactive: 0.037 | inactive: -0.075 | inactive: 0.065 | inactive: 0.046 | inactive: -0.005 | inactive: 0.009 | inactive: -0.003 | inactive: -0.043 | inactive: 0.059 | inactive: 0.024
STAT6 (UniProt P42226) | inactive: -0.004 | inactive: 0.049 | inactive: 0.043 | inactive: -0.001 | inactive: -0.019 | inactive: -0.024 | inactive: -0.04 | inactive: -0.022 | inactive: -0.007 | inactive: -0.003
STAT5B (UniProt P51692) | inactive: 0.023 | inactive: -0.019 | inactive: -0.006 | inactive: -0.043 | inactive: 0.038 | inactive: 0.014 | inactive: -0.027 | inactive: 0 | inactive: 0.026 | inactive: 0.015
SSRP1 (UniProt Q08945) | inactive: -0.024 | inactive: -0.021 | inactive: 0 | inactive: 0.01 | inactive: -0.026 | inactive: -0.02 | inactive: 0.009 | inactive: 0.021 | inactive: -0.017 | inactive: -0.03
SRA1 (UniProt Q9HD15) | inactive: -0.002 | inactive: -0.025 | inactive: 0.001 | inactive: -0.006 | inactive: 0.001 | inactive: -0.025 | inactive: 0.032 | inactive: -0.004 | inactive: 0.04 | inactive: -0.001
STARD3 isoform 3 (UniProt Q14849) | inactive: -0.014 | inactive: 0.104 | inactive: -0.022 | inactive: -0.085 | inactive: -0.078 | inactive: -0.003 | inactive: 0.107 | inactive: -0.085 | inactive: 0.133 | inactive: 0.047
SPCS2 (UniProt Q15005) | inactive: -0.019 | inactive: -0.023 | inactive: 0.023 | inactive: 0.058 | inactive: 0.016 | inactive: -0.006 | inactive: 0.002 | inactive: 0.049 | inactive: 0.002 | inactive: -0.027
SPRYD4 (UniProt Q8WW59) | inactive: -0.024 | inactive: 0.042 | inactive: -0.017 | inactive: 0.023 | inactive: 0.019 | inactive: 0.011 | inactive: -0.022 | inactive: -0.048 | inactive: -0.017 | inactive: 0
SSNA1 (UniProt O43805) | inactive: -0.004 | inactive: -0.04 | inactive: -0.013 | inactive: 0.07 | inactive: -0.036 | inactive: 0.04 | inactive: -0.03 | inactive: -0.002 | inactive: 0.066 | inactive: 0.018
SPTBN4 (UniProt Q9H254) | inactive: -0.027 | inactive: 0.009 | inactive: -0.042 | inactive: 0.083 | inactive: 0.286 | inactive: -0.112 | inactive: -0.141 | inactive: -0.085 | inactive: 0.019 | inactive: 0.029
SPIN1 (UniProt Q9Y657) | inactive: 0.024 | inactive: 0 | inactive: -0.021 | inactive: -0.074 | inactive: 0.079 | inactive: 0.026 | inactive: -0.156 | inactive: 0.036 | inactive: 0.023 | inactive: -0.042
SSX5 isoform 2 (UniProt O60225) | inactive: -0.302 | inactive: 0.12 | inactive: -0.142 | inactive: 0.195 | inactive: -0.125 | inactive: 0.043 | inactive: -0.027 | inactive: 0.23 | inactive: -0.219 | inactive: 0.007
SRPRA (UniProt P08240) | inactive: 0.001 | inactive: -0.055 | inactive: 0.003 | inactive: 0.014 | inactive: -0.013 | inactive: -0.025 | inactive: -0.023 | inactive: -0.028 | inactive: -0.027 | inactive: 0
SRD5A3 (UniProt Q9H8P0) | inactive: -0.166 | inactive: 0.001 | inactive: -0.164 | inactive: 0.146 | inactive: 0.103 | inactive: -0.064 | inactive: 0.246 | inactive: 0.023 | inactive: 0.039 | inactive: -0.047
STAT5A (UniProt P42229) | inactive: 0.035 | inactive: 0.024 | inactive: -0.018 | inactive: 0.036 | inactive: 0.011 | inactive: 0.02 | inactive: 0.001 | inactive: -0.003 | inactive: 0.05 | inactive: 0.005
ST7 (UniProt Q9NRC1) | inactive: -0.001 | inactive: 0.005 | inactive: -0.054 | inactive: -0.011 | inactive: -0.032 | inactive: 0.014 | inactive: -0.132 | inactive: -0.048 | inactive: -0.011 | inactive: -0.05
ST6GALNAC1 (UniProt Q9NSC7) | inactive: 0.034 | inactive: -0.11 | inactive: 0.022 | inactive: 0.043 | inactive: -0.044 | inactive: -0.049 | inactive: -0.052 | inactive: 0.042 | inactive: -0.025 | inactive: 0.04
SPR (UniProt P35270) | inactive: -0.027 | inactive: 0.014 | inactive: -0.021 | inactive: 0.056 | inactive: 0.049 | active: 1.04 | inactive: 0.013 | inactive: 0.008 | inactive: -0.041 | inactive: 0.049
SPG21 (UniProt Q9NZD8) | inactive: 0 | inactive: 0.069 | inactive: 0.009 | inactive: -0.094 | inactive: -0.007 | inactive: 0.01 | inactive: -0.045 | inactive: -0.039 | inactive: 0.01 | inactive: 0.023
SPATS2 (UniProt Q86XZ4) | inactive: -0.012 | inactive: -0.127 | inactive: -0.042 | inactive: 0.028 | inactive: -0.007 | inactive: 0.017 | inactive: -0.081 | inactive: 0.063 | inactive: 0.043 | inactive: -0.066
SREK1 isoform 2 (UniProt Q8WXA9) | inactive: 0.024 | inactive: -0.07 | inactive: -0.019 | inactive: -0.044 | inactive: -0.037 | inactive: -0.014 | inactive: -0.005 | inactive: -0.017 | inactive: -0.032 | inactive: -0.014
SPECC1L (UniProt Q69YQ0) | inactive: -0.006 | inactive: -0.009 | inactive: 0.026 | inactive: 0.009 | inactive: 0.006 | inactive: -0.005 | inactive: -0.038 | inactive: 0 | inactive: 0.09 | inactive: 0.028
SPTBN1 (UniProt Q01082) | inactive: -0.007 | inactive: 0.023 | inactive: 0.006 | inactive: -0.003 | inactive: 0.007 | inactive: 0.011 | inactive: -0.016 | inactive: -0.01 | inactive: -0.015 | inactive: -0.004
SPCS1, A0A5F9YFS9 | inactive: -0.031 | inactive: -0.022 | inactive: -0.047 | inactive: 0.007 | inactive: 0.03 | inactive: 0.035 | inactive: -0.082 | inactive: -0.026 | inactive: -0.075 | inactive: 0.015
SRSF10 (UniProt O75494) | inactive: 0.055 | inactive: 0 | inactive: -0.014 | inactive: -0.091 | inactive: 0.041 | inactive: -0.021 | inactive: 0.027 | inactive: 0.045 | inactive: 0.004 | inactive: -0.015
SPC25 (UniProt Q9HBM1) | inactive: 0.021 | inactive: -0.065 | inactive: -0.006 | inactive: 0.059 | inactive: -0.034 | inactive: 0.021 | inactive: -0.006 | inactive: -0.039 | inactive: 0.018 | inactive: 0.027
SSR4 (UniProt P51571) | inactive: -0.008 | inactive: -0.056 | inactive: 0.014 | inactive: -0.004 | inactive: -0.017 | inactive: -0.034 | inactive: 0.047 | inactive: -0.028 | inactive: -0.004 | inactive: 0.01

Part of the list above, reformatted.

| Target | log2 fold change [1] | log2 fold change [2] | log2 fold change [3] | log2 fold change [4] | log2 fold change [5] | log2 fold change [6] | log2 fold change [7] | log2 fold change [8] | log2 fold change [9] | log2 fold change [10] |
| --- | --- | --- | --- | --- | --- | --- | --- | --- | --- | --- |
| STAT5A (UniProt P42229) | inactive: 0.035 | inactive: 0.024 | inactive: -0.018 | inactive: 0.036 | inactive: 0.011 | inactive: 0.02 | inactive: 0.001 | inactive: -0.003 | inactive: 0.05 | inactive: 0.005 |
| ST7 (UniProt Q9NRC1) | inactive: -0.001 | inactive: 0.005 | inactive: -0.054 | inactive: -0.011 | inactive: -0.032 | inactive: 0.014 | inactive: -0.132 | inactive: -0.048 | inactive: -0.011 | inactive: -0.05 |

Source: the supplement of paper PMC10849652
